Values from PubChem BioAssay AID1224830 (NIAID, 2016)

Screen: 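Host factors that control LPS-induced TNF expression in human macrophages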 (primary screen)
Cells: human THP-1 monocytic leukaemia cells, TNF dual-luciferase reporter clone, PMA-differentiated to macrophage-like cells
Reagent: siRNA pool against human genes, 50 nM
Timing: LPS for 4 h, given about 3 days after siRNA transfection
Challenge: bacterial LPS (TLR4 ligand), 10 ng/ml
Measured: 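Ratio of firefly to renilla light, scaled to the plate median and expressed as a robust z-score per replicate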
Direction: TNF reporter robust z-score: higher = stronger TNF reporter response to LPS
Rule for the call: 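a well is active when its z-score exceeds 2.8 or falls below -1.5; control wells carry no call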
In all, the deposit lists about 18,000 reagents; shown is a part drawn at random. About 2,900 of all reagents (16%) were called active. 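Calls are made per well; low scores hint the gene aids the LPS response, high scores that it dampens it.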 Repeated entries: four replicate wells of each siRNA pool.

Target gene	TNF reporter robust z-score	Call
UBE2N (ubiquitin conjugating enzyme E2 N)	0.28	inactive
UBE2N (ubiquitin conjugating enzyme E2 N)	-0.29	inactive
UBE2N (ubiquitin conjugating enzyme E2 N)	-0.39	inactive
UBE2N (ubiquitin conjugating enzyme E2 N)	0.18	inactive
CLN6 (CLN6 transmembrane ER protein)	-0.53	inactive
CLN6 (CLN6 transmembrane ER protein)	1.74	inactive
CLN6 (CLN6 transmembrane ER protein)	0.3	inactive
CLN6 (CLN6 transmembrane ER protein)	0.71	inactive
KCNK16 (potassium two pore domain channel subfamily K member 16)	-0.77	inactive
KCNK16 (potassium two pore domain channel subfamily K member 16)	-0.65	inactive
KCNK16 (potassium two pore domain channel subfamily K member 16)	-0.6	inactive
KCNK16 (potassium two pore domain channel subfamily K member 16)	1.15	inactive
TMEM126A (transmembrane protein 126A)	0.86	inactive
TMEM126A (transmembrane protein 126A)	1.86	inactive
TMEM126A (transmembrane protein 126A)	0.05	inactive
TMEM126A (transmembrane protein 126A)	1.75	inactive
E2F3 (E2F transcription factor 3)	-0.84	inactive
E2F3 (E2F transcription factor 3)	-1.85	active
E2F3 (E2F transcription factor 3)	-1.09	inactive
E2F3 (E2F transcription factor 3)	-0.64	inactive
OR5K4 (olfactory receptor family 5 subfamily K member 4)	0.47	inactive
OR5K4 (olfactory receptor family 5 subfamily K member 4)	0.81	inactive
OR5K4 (olfactory receptor family 5 subfamily K member 4)	0.23	inactive
OR5K4 (olfactory receptor family 5 subfamily K member 4)	-0.85	inactive
TMUB1 (transmembrane and ubiquitin like domain containing 1)	2	inactive
TMUB1 (transmembrane and ubiquitin like domain containing 1)	2.39	inactive
TMUB1 (transmembrane and ubiquitin like domain containing 1)	2.45	inactive
TMUB1 (transmembrane and ubiquitin like domain containing 1)	1.67	inactive
TMIE (transmembrane inner ear)	0.89	inactive
TMIE (transmembrane inner ear)	0.25	inactive
TMIE (transmembrane inner ear)	0.4	inactive
TMIE (transmembrane inner ear)	5.76	active
DAPK3 (death associated protein kinase 3)	0.67	inactive
DAPK3 (death associated protein kinase 3)	0.9	inactive
DAPK3 (death associated protein kinase 3)	1.1	inactive
DAPK3 (death associated protein kinase 3)	0.19	inactive
ATF7IP (activating transcription factor 7 interacting protein)	-0.06	inactive
ATF7IP (activating transcription factor 7 interacting protein)	-0.14	inactive
ATF7IP (activating transcription factor 7 interacting protein)	-0.9	inactive
ATF7IP (activating transcription factor 7 interacting protein)	-0.37	inactive

Continued; the last 15 above are carried over.
Target gene	TNF reporter robust z-score	Call
TMUB1 (transmembrane and ubiquitin like domain containing 1)	2.39	inactive
TMUB1 (transmembrane and ubiquitin like domain containing 1)	2.45	inactive
TMUB1 (transmembrane and ubiquitin like domain containing 1)	1.67	inactive
TMIE (transmembrane inner ear)	0.89	inactive
TMIE (transmembrane inner ear)	0.25	inactive
TMIE (transmembrane inner ear)	0.4	inactive
TMIE (transmembrane inner ear)	5.76	active
DAPK3 (death associated protein kinase 3)	0.67	inactive
DAPK3 (death associated protein kinase 3)	0.9	inactive
DAPK3 (death associated protein kinase 3)	1.1	inactive
DAPK3 (death associated protein kinase 3)	0.19	inactive
ATF7IP (activating transcription factor 7 interacting protein)	-0.06	inactive
ATF7IP (activating transcription factor 7 interacting protein)	-0.14	inactive
ATF7IP (activating transcription factor 7 interacting protein)	-0.9	inactive
ATF7IP (activating transcription factor 7 interacting protein)	-0.37	inactive
SLC22A16	0.28	inactive
SLC22A16	-0.21	inactive
SLC22A16	1.14	inactive
SLC22A16	0.12	inactive
NFE2L1 (NFE2 like bZIP transcription factor 1)	-0.58	inactive
NFE2L1 (NFE2 like bZIP transcription factor 1)	-0.55	inactive
NFE2L1 (NFE2 like bZIP transcription factor 1)	-0.21	inactive
NFE2L1 (NFE2 like bZIP transcription factor 1)	0.26	inactive
FERMT1 (FERM domain containing kindlin 1)	-0.3	inactive
FERMT1 (FERM domain containing kindlin 1)	-0.17	inactive
FERMT1 (FERM domain containing kindlin 1)	0.23	inactive
FERMT1 (FERM domain containing kindlin 1)	-0.16	inactive
SMIM12 (small integral membrane protein 12)	2.56	inactive
SMIM12 (small integral membrane protein 12)	1.89	inactive
SMIM12 (small integral membrane protein 12)	3.59	active
SMIM12 (small integral membrane protein 12)	1.75	inactive
DDX5 (DEAD-box helicase 5)	0.12	inactive
DDX5 (DEAD-box helicase 5)	0.2	inactive
DDX5 (DEAD-box helicase 5)	0.69	inactive
DDX5 (DEAD-box helicase 5)	1.2	inactive
NUDT4 (nudix hydrolase 4)	-1.47	inactive
NUDT4 (nudix hydrolase 4)	-0.65	inactive
NUDT4 (nudix hydrolase 4)	-0.94	inactive
NUDT4 (nudix hydrolase 4)	0.09	inactive
UBTD1 (ubiquitin domain containing 1)	1.3	inactive
UBTD1 (ubiquitin domain containing 1)	1.57	inactive
UBTD1 (ubiquitin domain containing 1)	1.65	inactive
UBTD1 (ubiquitin domain containing 1)	2.05	inactive
IFRD1 (interferon related developmental regulator 1)	2.26	inactive
IFRD1 (interferon related developmental regulator 1)	1.91	inactive
IFRD1 (interferon related developmental regulator 1)	2.14	inactive
IFRD1 (interferon related developmental regulator 1)	4.62	active
MLXIPL (MLX interacting protein like)	-1.03	inactive
MLXIPL (MLX interacting protein like)	-1.11	inactive
MLXIPL (MLX interacting protein like)	-1.02	inactive
MLXIPL (MLX interacting protein like)	0.02	inactive
ARL6IP4 (ARF like GTPase 6 interacting protein 4)	0.18	inactive
ARL6IP4 (ARF like GTPase 6 interacting protein 4)	0.82	inactive
ARL6IP4 (ARF like GTPase 6 interacting protein 4)	0.41	inactive
ARL6IP4 (ARF like GTPase 6 interacting protein 4)	-0.25	inactive
ADGRG6 (adhesion G protein-coupled receptor G6)	-0.84	inactive
ADGRG6 (adhesion G protein-coupled receptor G6)	-0.67	inactive
ADGRG6 (adhesion G protein-coupled receptor G6)	-0.36	inactive
ADGRG6 (adhesion G protein-coupled receptor G6)	-0.49	inactive
PNPO (pyridoxamine 5'-phosphate oxidase)	-0.78	inactive
PNPO (pyridoxamine 5'-phosphate oxidase)	0.32	inactive
PNPO (pyridoxamine 5'-phosphate oxidase)	-0.29	inactive
PNPO (pyridoxamine 5'-phosphate oxidase)	0.89	inactive
PTPN22 (protein tyrosine phosphatase non-receptor type 22)	-0.22	inactive
PTPN22 (protein tyrosine phosphatase non-receptor type 22)	-1.04	inactive
PTPN22 (protein tyrosine phosphatase non-receptor type 22)	-1.49	inactive
PTPN22 (protein tyrosine phosphatase non-receptor type 22)	1.48	inactive
FOXK2 (forkhead box K2)	-0.12	inactive
FOXK2 (forkhead box K2)	0.28	inactive
FOXK2 (forkhead box K2)	0.97	inactive
FOXK2 (forkhead box K2)	1.11	inactive
AKR1A1 (aldo-keto reductase family 1 member A1)	-0.94	inactive
AKR1A1 (aldo-keto reductase family 1 member A1)	-0.87	inactive
AKR1A1 (aldo-keto reductase family 1 member A1)	-1.05	inactive
AKR1A1 (aldo-keto reductase family 1 member A1)	-1.04	inactive
PLCE1 (phospholipase C epsilon 1)	-1.8	active
PLCE1 (phospholipase C epsilon 1)	-1.43	inactive
PLCE1 (phospholipase C epsilon 1)	-1.32	inactive
PLCE1 (phospholipase C epsilon 1)	0.62	inactive
SERPINA1 (serpin family A member 1)	-1.74	active
SERPINA1 (serpin family A member 1)	1.54	inactive
SERPINA1 (serpin family A member 1)	-0.32	inactive
SERPINA1 (serpin family A member 1)	1.39	inactive
TBC1D14 (TBC1 domain family member 14)	-0.09	inactive
TBC1D14 (TBC1 domain family member 14)	-0.31	inactive
TBC1D14 (TBC1 domain family member 14)	0.1	inactive
TBC1D14 (TBC1 domain family member 14)	-0.62	inactive
